Measurements as given in patent US20230203127A1.
Results are given in words; binding and its absence hold for the method and conditions named. Binding can be weak; no strength is given.

Biological target: HLA-A*02:01 (human)
Experiment: UV peptide-exchange ELISA, exchange yield grade

B1: … (SEQ ID NO: 218) (peptide)
peptide: SLTGANITV
Q: For B1, which binding is on record?
A: The binding was “binds”.
